# Measured values as given in patent US20230416248A1, “COMPOUNDS AND USES THEREOF” (Foghorn Therapeutics Inc., priority 2020, published 2023).
# By UniProt entry, the sequences of proteins in these tests, tags left out.
# UniProt P51531, whole entry: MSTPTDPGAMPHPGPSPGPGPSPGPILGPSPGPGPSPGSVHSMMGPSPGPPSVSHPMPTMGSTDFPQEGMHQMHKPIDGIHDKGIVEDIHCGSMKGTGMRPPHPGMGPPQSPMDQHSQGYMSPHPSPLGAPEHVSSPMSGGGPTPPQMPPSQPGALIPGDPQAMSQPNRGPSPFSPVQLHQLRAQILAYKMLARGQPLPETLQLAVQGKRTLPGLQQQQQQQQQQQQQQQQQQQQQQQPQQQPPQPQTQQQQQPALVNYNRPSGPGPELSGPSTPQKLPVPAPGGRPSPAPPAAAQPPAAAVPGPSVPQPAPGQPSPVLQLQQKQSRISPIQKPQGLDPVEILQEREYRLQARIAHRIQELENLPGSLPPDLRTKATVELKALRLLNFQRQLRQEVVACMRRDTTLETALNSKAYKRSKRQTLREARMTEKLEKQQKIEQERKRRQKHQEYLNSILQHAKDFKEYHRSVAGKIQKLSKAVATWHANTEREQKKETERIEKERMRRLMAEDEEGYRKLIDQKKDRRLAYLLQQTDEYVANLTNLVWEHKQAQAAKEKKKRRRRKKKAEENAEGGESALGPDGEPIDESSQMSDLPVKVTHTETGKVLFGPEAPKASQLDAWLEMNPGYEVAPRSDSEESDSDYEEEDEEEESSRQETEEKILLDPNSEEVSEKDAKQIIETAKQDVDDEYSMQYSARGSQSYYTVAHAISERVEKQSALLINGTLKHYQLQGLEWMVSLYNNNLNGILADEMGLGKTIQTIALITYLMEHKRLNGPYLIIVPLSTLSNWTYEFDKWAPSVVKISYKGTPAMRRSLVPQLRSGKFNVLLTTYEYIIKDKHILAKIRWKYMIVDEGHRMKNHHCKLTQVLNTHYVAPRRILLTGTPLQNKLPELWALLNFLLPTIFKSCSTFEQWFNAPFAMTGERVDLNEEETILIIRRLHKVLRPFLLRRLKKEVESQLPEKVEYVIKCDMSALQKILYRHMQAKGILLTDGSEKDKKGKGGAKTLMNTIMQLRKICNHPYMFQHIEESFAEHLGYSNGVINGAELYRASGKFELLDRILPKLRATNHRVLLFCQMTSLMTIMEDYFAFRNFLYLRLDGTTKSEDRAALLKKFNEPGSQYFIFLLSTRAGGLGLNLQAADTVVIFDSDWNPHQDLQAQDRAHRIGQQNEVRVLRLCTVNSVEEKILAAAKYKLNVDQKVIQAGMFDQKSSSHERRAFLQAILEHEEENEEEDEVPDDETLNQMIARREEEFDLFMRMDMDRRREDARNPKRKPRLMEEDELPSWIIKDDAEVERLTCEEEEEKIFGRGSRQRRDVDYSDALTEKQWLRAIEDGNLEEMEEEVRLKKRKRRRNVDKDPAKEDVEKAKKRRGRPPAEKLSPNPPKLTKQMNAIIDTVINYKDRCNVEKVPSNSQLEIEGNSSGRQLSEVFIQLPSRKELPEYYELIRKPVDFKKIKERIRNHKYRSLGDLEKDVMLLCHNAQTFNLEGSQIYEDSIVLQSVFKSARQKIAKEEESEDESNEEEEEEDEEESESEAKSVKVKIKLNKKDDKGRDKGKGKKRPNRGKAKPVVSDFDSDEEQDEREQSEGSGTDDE
# For at least one compound, name, drawing or mass did not settle the structure.
# Molecular target: T1, BRM (Homo sapiens, UniProt P51531)
# T1 construct: made in house; host or cells: High Five insect cells
# Test: ATPase catalytic activity of BRM, ADP-Glo in vitro biochemical assay
# Details: for Ratio* (BRG1 IC50 (μM) divided by BRM IC50 (μM)): selectivity ratio BRG1 IC50 / BRM IC50
# Procedure: The ATPase catalytic activity of BRM or BRG-1 was measured by an in vitro biochemical assay using ADP-Glo™ (Promega, V9102). The ADP-Glo™ kinase assay is performed in two steps once the reaction is complete. The first step is to deplete any unconsumed ATP in the reaction. The second step is to convert the reaction product ADP to ATP, which will be utilized by the luciferase to generate luminesce and be detected by a luminescence reader, such as Envision.
# The assay reaction mixture ([…]) contains 30 nM of BRM or BRG-1, 20 nM salmon sperm DNA (from Invitrogen, UfraPure™ Salmon Sperm DNA Solution, cat #15632011), and 400 μM of ATP in the ATPase assay buffer, which comprises of 20 mM Tris, pH 8, 20 mM MgCl2, 50 mM NaCl, 0.1% Tween-20, and 1 mM fresh DTT (Piercer™ DTT (Dithiothreitol), cat #20290). The reaction is initiated by the addition of the 2.5 μL ATPase solution to 2.5 μL ATP/DNA solution on low volume white Proxiplate-384 plus plate (PerkinElmer, cat #6008280) and incubates at room temperature for 1 hour. Then, following addition of 5 μL of ADP-Glo™ Reagent provided in the kit, the reaction incubates at room temperature for 40 minutes. Then, 10 μL of Kinase Detection Reagent provided in the kit is added to convert ADP to ATP, and the reaction incubates at room temperature for 60 minutes. Finally, luminescence measurement is collected with a plate-reading luminometer, such as Envision.
Structure (SMILES),Ratio* (BRG1 IC50 (μM) divided by BRM IC50 (μM)),Ratio* (ratio BRG1 IC50 / BRM IC50)
C[C@@H]1CN(c2cccc(-c3ccc4nnc(CNC(=O)c5ccc(C(F)F)c(S(C)(=O)=O)c5)cc4n3)n2)C[C@H](C)O1 [Compound 40],9.95,
O=C(NCc1cc2nc(N3CCc4ccccc43)ccc2cn1)c1ccc2c(c1)S(=O)(=O)CCOC2 [Compound 50],10.36,
COc1cc2c(cc1F)CCCN2c1ccc2cnc(CNC(=O)c3ccc4c(c3)S(=O)(=O)CCOC4)cc2n1 [Compound 714],,12.16

# Other lines, results leading:
Ratio* (BRG1 IC50 (μM) divided by BRM IC50 (μM)),Ratio* (ratio BRG1 IC50 / BRM IC50),Structure (SMILES)
14.73,,O=C(NCc1cc2nc(-c3cccc(N4CCC4)n3)ccc2nn1)c1ccc2c(c1)S(=O)(=O)CCOC2 [Compound 57]
9.98,,C[C@@H]1CN(c2cccc(-c3ccc4cnc(CNC(=O)c5ccc6c(c5)S(=O)(=O)CCCO6)cc4n3)n2)C[C@H](C)O1 [Compound 53]
